{
  "source": "the supplement of paper PMC7858590",
  "note": "± gives the standard deviation of the averaged measurements. Whole data set: some 3,800 compounds, median “cell shape (eccentricity) Z-score vs DMSO control” near 1.1, cut for the lowest 2% near -4.7. The list shows a part of the results.",
  "data": [
    {"test_system": "human monocyte-derived macrophages (M0)", "assay": "cell shape (eccentricity) Z-score vs DMSO control; higher = more elongated, M2-like morphology", "details": "20 µM; 24 h; macrophage state: M0 (M-CSF)", "values": [
      {"smiles": "C/C=C1/[C@H](O[C@@H]2O[C@H](CO)[C@@H](O)[C@H](O)[C@H]2O)OC=C(C(=O)OC)[C@H]1CC(=O)OCCc1ccc(OC(=O)C[C@@H]2C(C(=O)OC)=CO[C@@H](O[C@@H]3O[C@H](CO)[C@@H](O)[C@H](O)[C@H]3O)/C2=C/C)cc1", "cell shape (Z-score)": 1.16},
      {"smiles": "CC1(C)[C@H](O)CC[C@@]2(C)[C@@H]3CC[C@](C)(C(O)CO)CC3=CC[C@H]12", "note": "(stereo partly drawn)", "cell shape (Z-score)": 1.1},
      {"smiles": "CC1=CC(=O)CC2C1(C)CCC(C)C2(C)CCC(C)CC(=O)O", "note": "(stereo not drawn)", "cell shape (Z-score)": 0.972},
      {"smiles": "Nc1ccc(S(=O)(=O)Nc2ccc(Cl)nn2)cc1", "cell shape (Z-score)": -0.192},
      {"smiles": "C=C(C)[C@@H]1CC[C@]2(C(=O)O)CC[C@]3(C)[C@H](CCC4[C@@]5(C)CCC(=O)C(C)(C)C5C(O)C[C@]43C)C12", "note": "(stereo partly drawn)", "cell shape (Z-score)": "2.32 ± 2.1"},
      {"smiles": "CN(C(=O)c1c(O)c2ccccc2n(C)c1=O)c1ccccc1", "cell shape (Z-score)": 0.342},
      {"smiles": "COc1ccc(CN(CCN(C)C)c2ccccn2)cc1", "cell shape (Z-score)": 1.96},
      {"smiles": "COCCc1ccc(OCC(O)CNC(C)C)cc1", "note": "(stereo not drawn)", "cell shape (Z-score)": -2.13},
      {"smiles": "CN1C2CCC1CC(OC(=O)c1c[nH]c3ccccc13)C2", "note": "(stereo not drawn)", "cell shape (Z-score)": -0.479},
      {"smiles": "O=C(Cc1ccc(O)cc1)OC1[C@@H](O)[C@@H](O)C(OC(=O)Cc2ccc(O)cc2)[C@H](O)[C@@H]1O", "note": "(stereo partly drawn)", "cell shape (Z-score)": 2.31},
      {"smiles": "COc1ccc(-c2oc3ccccc3c(=O)c2O)cc1OC", "cell shape (Z-score)": 5.09},
      {"smiles": "COc1cc(/C=C/C(=O)CC(=O)/C=C/c2ccc(O)c(OC)c2)ccc1O", "cell shape (Z-score)": -0.792},
      {"smiles": "COc1cc(O)c2c(=O)c(OC)c(-c3cc(O)c(OC)c(OC)c3)oc2c1", "cell shape (Z-score)": "0.445 ± 0.68"},
      {"smiles": "COC(=O)C(Cc1c[nH]c2ccccc12)NC(=O)C(NC(=O)C(C)NC(=O)/C=C/C(=O)O)C(C)c1c[nH]c2ccccc12", "note": "(stereo not drawn)", "cell shape (Z-score)": 4.69},
      {"smiles": "C[C@H](CO)N1C[C@H](C)[C@@H](CN(C)C(=O)Nc2cccc3ccccc23)Oc2ccc(NC(=O)c3ccncc3)cc2CC1=O", "cell shape (Z-score)": -1.04},
      {"smiles": "CC(C)Oc1ccc2c(=O)cc(-c3ccccc3)oc2c1", "cell shape (Z-score)": 3.09},
      {"smiles": "COc1ccc(C(=O)c2ccccc2O)c(O)c1", "cell shape (Z-score)": 0.554},
      {"smiles": "CCOC(=O)NCC(Cc1ccc(OCCc2nc(-c3ccccc3)oc2C)cc1)NC(C)=CC(=O)c1ccc(C(F)(F)F)cc1", "note": "(stereo not drawn)", "cell shape (Z-score)": 4.13},
      {"smiles": "Clc1ccc(Cn2c(CN3CCCC3)nc3ccccc32)cc1", "cell shape (Z-score)": 0.213},
      {"smiles": "CC1(C)CC[C@]2(C(=O)O[C@@H]3O[C@H](CO)[C@@H](O)[C@H](O)[C@H]3O)CC[C@]3(C)C(=CCC4[C@@]5(C)CC[C@H](O[C@@H]6O[C@H](CO)[C@@H](O)[C@H](O)[C@H]6O)[C@@](C)(CO)C5CC[C@]43C)[C@@H]2C1", "note": "(stereo partly drawn)", "cell shape (Z-score)": 1.3},
      {"smiles": "O=C1C(SCCO)=C(SCCO)C(=O)c2ccccc21", "cell shape (Z-score)": 2.63},
      {"smiles": "COc1ccc2cccc(N3CCN(CCNC(=O)c4ccc(F)cc4)CC3)c2c1", "cell shape (Z-score)": 2.87},
      {"smiles": "C=CCN1CCc2c(cc(O)c(O)c2Br)[C@@H](c2ccccc2)C1", "cell shape (Z-score)": 0.855},
      {"smiles": "Cc1cc(Nc2nc(N[C@@H](C)c3ncc(F)cn3)ncc2Cl)n[nH]1", "cell shape (Z-score)": 7.45},
      {"smiles": "CC(C)(C)NC(=O)[C@H]1CCC2C3CCC4NC(=O)C=C[C@]4(C)C3CC[C@@]21C", "note": "(stereo partly drawn)", "cell shape (Z-score)": 1.25},
      {"smiles": "C[C@@H]1CC[C@]2(C(=O)OC3OC(COC4OC(CO)C(O[C@@H]5O[C@@H](C)[C@H](O)[C@@H](O)[C@H]5O)C(O)C4O)C(O)C(O)C3O)CC[C@]3(C)C(=CCC4[C@@]5(C)CC[C@@H](O)[C@](C)(C(=O)O)C5CC[C@]43C)C2[C@H]1C", "note": "(stereo partly drawn)", "cell shape (Z-score)": 1.12},
      {"smiles": "CC(=O)Nc1cccc(O)c1", "cell shape (Z-score)": 3.66},
      {"smiles": "COC(=O)C1=CO[C@@H](O[C@@H]2O[C@H](CO)[C@@H](O)[C@H](O)[C@H]2O)[C@H]2[C@@H]1C=CC21C=C([C@H](C)OC(=O)/C=C/c2ccc(O)cc2)C(=O)O1", "note": "(stereo partly drawn)", "cell shape (Z-score)": 2.22},
      {"smiles": "CCc1oc2ccccc2c1C(=O)c1cc(Br)c(O)c(Br)c1", "cell shape (Z-score)": -1.07},
      {"smiles": "COc1cc(C(C)=O)ccc1O[C@@H]1O[C@H](CO)[C@@H](O)[C@H](O)[C@H]1O", "cell shape (Z-score)": -0.109},
      {"smiles": "C[C@@H]1O[C@@H](OC[C@H]2O[C@@H](c3c(O)cc4oc(-c5ccc(O)c(O)c5)cc(=O)c4c3O)[C@H](O)[C@@H](O)[C@@H]2O)[C@H](O)[C@H](O)[C@H]1O", "cell shape (Z-score)": -0.453},
      {"smiles": "CO[C@H]1CC(O[C@@H]2/C(C)=C/C[C@@H]3C[C@@H](C[C@]4(CC[C@H](C)[C@@H](C5CCCCC5)O4)O3)OC(=O)[C@@H]3C=C(C)/C(=N/O)[C@H]4OC/C(=C\\C=C\\[C@@H]2C)[C@]43O)O[C@@H](C)C1O", "note": "(stereo partly drawn)", "cell shape (Z-score)": 8.19},
      {"smiles": "C[C@@H]1O[C@@H](Oc2ccc(-c3coc4cc(O[C@@H]5O[C@@H](C)[C@H](O)[C@@H](O)[C@H]5O)cc(O)c4c3=O)cc2)[C@H](O)[C@H](O)[C@H]1O", "cell shape (Z-score)": -0.632},
      {"smiles": "CCOC(=O)C12CC1C(=NO)c1ccccc1O2", "note": "(stereo not drawn)", "cell shape (Z-score)": 2.79},
      {"smiles": "NS(=O)(=O)c1ccc(Cl)c(S(N)(=O)=O)c1", "cell shape (Z-score)": 0.669},
      {"smiles": "C/C(=C\\C(=O)OCCCCCCCCC(=O)O)C[C@@H]1OC[C@H](C[C@@H]2O[C@H]2[C@@H](C)[C@H](C)O)[C@@H](O)[C@H]1O", "cell shape (Z-score)": 0.257},
      {"smiles": "CC(C)(C)NCC(O)c1cc(O)cc(O)c1", "note": "(stereo not drawn)", "cell shape (Z-score)": 2.12},
      {"smiles": "C=C1C2=C(O[C@H](/C(C)=C/C(C)CC(C)CC)[C@@H](O)[C@@H]2O)C(=O)N1OC", "note": "(stereo partly drawn)", "cell shape (Z-score)": "0.252 ± 0.046"},
      {"smiles": "N#CC(=Cc1ccc(O)c(O)c1)C(=O)NCCCc1ccccc1", "cell shape (Z-score)": -1.56},
      {"smiles": "C=C1CC/C=C(/C(=O)O)C[C@H](O)C2C1CC2(C)C", "note": "(stereo partly drawn)", "cell shape (Z-score)": 0.708},
      {"smiles": "CC1=CCC(C(C)(C)O[C@@H]2O[C@H](C)[C@@H](O)[C@H](O)[C@H]2O)CC1", "note": "(stereo partly drawn)", "cell shape (Z-score)": 0.119},
      {"smiles": "CCC(C)C(=O)OCC1(c2ccc(C)cc2OC(=O)C(C)C)CO1", "note": "(stereo not drawn)", "cell shape (Z-score)": "0.487 ± 1.1"},
      {"smiles": "CCOC(=O)[C@H](CCc1ccccc1)N[C@@H](C)C(=O)N1Cc2ccccc2C[C@H]1C(=O)O", "cell shape (Z-score)": 2.22},
      {"smiles": "CC(C)CNc1ccnc(NCc2csc(-c3ccccc3)n2)n1", "cell shape (Z-score)": 5.76},
      {"smiles": "COc1cc2ncnc(Nc3ccc(F)c(Cl)c3)c2cc1OCCCN1CCOCC1", "cell shape (Z-score)": 7.42},
      {"smiles": "O=C1c2ccccc2C(Cc2ccncc2)(Cc2ccncc2)c2ccccc21", "cell shape (Z-score)": 1.37},
      {"smiles": "CC[C@H]1OC(=O)[C@H](C)[C@@H](O[C@H]2C[C@@](C)(OC)[C@@H](O)[C@H](C)O2)[C@H](C)[C@@H](O[C@@H]2O[C@H](C)C[C@H](N(C)C)[C@H]2O)[C@](C)(O)C[C@@H](C)/C(=N\\OCOCCOC)[C@H](C)[C@@H](O)[C@]1(C)O", "cell shape (Z-score)": 2.41},
      {"smiles": "CN1CCC[C@@H]1CCO[C@](C)(c1ccccc1)c1ccc(Cl)cc1", "cell shape (Z-score)": 2.98}
    ]}
  ]
}
